Test results published in the supplement of paper PMC7666118.
Some of the results follow.

Protein sequences, listed by entry. Tags and fused reporters are not part of them. Lines headed by an entry give the natural chain unless they say otherwise; changes in a name come on top.
UniProt P49720: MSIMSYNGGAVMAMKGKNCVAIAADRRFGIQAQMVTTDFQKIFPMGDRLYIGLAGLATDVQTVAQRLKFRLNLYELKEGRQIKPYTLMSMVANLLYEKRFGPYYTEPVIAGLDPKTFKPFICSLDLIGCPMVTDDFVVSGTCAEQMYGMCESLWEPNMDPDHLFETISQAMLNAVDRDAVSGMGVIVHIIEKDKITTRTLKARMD
UniProt Q96S59, whole entry: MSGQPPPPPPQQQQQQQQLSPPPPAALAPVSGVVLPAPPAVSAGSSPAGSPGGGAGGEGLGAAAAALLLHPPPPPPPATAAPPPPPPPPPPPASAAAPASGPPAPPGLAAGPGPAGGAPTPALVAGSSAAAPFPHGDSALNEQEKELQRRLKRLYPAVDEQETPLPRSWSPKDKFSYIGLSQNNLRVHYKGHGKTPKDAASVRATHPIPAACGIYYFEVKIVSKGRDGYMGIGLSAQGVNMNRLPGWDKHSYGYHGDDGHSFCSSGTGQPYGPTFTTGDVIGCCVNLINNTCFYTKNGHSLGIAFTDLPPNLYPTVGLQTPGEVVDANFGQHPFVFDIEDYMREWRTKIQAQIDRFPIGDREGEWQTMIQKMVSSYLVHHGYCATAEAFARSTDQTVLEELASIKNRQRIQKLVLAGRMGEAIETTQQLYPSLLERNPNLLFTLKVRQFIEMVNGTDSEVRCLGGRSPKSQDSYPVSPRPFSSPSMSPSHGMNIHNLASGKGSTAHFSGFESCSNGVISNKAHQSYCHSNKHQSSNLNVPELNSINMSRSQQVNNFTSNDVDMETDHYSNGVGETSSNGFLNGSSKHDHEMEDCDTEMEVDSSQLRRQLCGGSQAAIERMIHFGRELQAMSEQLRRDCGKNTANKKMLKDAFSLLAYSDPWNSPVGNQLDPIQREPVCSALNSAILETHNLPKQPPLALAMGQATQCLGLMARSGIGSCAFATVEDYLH
UniProt O75884: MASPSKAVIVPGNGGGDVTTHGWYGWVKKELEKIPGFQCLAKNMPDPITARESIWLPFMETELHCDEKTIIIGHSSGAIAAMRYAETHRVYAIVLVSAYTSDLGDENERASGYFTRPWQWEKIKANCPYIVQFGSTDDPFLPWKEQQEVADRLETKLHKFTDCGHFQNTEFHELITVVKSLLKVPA
UniProt Q96PZ0: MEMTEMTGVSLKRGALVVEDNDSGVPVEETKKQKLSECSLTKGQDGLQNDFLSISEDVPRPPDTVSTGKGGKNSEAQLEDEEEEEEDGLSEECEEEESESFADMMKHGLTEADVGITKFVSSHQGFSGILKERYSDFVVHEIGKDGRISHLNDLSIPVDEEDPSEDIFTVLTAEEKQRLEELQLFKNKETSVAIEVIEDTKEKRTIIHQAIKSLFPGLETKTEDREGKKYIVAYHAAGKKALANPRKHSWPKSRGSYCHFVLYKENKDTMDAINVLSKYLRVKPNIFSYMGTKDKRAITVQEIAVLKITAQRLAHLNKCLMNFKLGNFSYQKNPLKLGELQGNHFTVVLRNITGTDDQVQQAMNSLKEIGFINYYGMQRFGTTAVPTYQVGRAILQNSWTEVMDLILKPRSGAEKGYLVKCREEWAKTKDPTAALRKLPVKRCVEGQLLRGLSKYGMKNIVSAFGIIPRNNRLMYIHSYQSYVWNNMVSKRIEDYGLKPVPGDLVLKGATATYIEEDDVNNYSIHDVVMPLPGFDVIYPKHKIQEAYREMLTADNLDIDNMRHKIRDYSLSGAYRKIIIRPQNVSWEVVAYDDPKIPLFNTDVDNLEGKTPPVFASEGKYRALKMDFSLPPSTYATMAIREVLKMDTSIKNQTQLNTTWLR
UniProt P25789: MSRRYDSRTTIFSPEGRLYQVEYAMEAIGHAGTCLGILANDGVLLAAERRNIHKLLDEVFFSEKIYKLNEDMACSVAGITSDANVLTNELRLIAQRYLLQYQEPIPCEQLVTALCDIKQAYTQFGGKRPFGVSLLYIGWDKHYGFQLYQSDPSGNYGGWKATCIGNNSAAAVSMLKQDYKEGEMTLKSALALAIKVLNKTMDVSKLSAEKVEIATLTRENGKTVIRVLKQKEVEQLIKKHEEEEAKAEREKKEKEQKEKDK
UniProt Q9BVG9: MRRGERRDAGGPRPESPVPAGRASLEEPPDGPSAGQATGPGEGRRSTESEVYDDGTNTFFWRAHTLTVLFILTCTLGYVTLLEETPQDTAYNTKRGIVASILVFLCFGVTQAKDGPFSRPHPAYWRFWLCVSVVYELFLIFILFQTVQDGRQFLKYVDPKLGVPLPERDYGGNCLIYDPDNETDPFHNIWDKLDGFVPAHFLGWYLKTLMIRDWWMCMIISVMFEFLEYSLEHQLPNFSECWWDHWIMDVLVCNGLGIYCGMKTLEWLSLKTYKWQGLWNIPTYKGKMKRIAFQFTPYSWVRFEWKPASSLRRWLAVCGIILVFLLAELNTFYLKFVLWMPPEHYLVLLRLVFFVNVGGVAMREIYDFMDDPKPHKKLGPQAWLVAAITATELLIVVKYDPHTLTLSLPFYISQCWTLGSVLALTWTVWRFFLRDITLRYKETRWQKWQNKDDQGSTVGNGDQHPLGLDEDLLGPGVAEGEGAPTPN
UniProt Q8WWY3: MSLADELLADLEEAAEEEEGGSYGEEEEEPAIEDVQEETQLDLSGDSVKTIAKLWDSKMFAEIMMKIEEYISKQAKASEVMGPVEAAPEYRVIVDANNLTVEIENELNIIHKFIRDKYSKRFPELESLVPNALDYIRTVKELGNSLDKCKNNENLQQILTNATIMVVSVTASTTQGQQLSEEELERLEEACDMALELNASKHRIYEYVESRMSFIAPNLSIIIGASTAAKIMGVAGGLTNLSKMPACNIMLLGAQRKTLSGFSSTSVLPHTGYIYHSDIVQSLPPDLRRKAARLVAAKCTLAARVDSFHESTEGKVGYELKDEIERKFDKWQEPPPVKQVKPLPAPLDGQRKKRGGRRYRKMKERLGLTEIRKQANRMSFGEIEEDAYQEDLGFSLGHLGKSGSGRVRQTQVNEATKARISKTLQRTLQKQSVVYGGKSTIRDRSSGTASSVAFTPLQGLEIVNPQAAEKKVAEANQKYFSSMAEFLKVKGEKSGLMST
UniProt P18433: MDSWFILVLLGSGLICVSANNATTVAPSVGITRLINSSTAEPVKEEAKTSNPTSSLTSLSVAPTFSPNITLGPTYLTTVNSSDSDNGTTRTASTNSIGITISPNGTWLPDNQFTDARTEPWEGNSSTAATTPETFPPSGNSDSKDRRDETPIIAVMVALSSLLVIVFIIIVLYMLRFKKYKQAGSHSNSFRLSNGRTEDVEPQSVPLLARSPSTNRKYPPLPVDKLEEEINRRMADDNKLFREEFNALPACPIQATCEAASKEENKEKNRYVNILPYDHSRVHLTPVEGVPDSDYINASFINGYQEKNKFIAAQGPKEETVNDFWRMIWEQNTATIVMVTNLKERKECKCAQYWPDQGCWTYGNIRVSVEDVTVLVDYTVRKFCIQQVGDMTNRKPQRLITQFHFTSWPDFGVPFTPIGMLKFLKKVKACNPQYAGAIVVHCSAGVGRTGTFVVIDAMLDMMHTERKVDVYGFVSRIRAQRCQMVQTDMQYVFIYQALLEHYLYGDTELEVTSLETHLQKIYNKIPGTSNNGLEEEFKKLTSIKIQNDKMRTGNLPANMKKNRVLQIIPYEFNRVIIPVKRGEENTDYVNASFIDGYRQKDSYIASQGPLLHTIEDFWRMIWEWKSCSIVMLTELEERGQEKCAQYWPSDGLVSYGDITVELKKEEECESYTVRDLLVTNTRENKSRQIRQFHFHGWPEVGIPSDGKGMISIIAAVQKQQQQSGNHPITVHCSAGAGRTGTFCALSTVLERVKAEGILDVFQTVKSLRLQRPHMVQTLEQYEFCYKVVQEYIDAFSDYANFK
UniProt P52756, whole entry: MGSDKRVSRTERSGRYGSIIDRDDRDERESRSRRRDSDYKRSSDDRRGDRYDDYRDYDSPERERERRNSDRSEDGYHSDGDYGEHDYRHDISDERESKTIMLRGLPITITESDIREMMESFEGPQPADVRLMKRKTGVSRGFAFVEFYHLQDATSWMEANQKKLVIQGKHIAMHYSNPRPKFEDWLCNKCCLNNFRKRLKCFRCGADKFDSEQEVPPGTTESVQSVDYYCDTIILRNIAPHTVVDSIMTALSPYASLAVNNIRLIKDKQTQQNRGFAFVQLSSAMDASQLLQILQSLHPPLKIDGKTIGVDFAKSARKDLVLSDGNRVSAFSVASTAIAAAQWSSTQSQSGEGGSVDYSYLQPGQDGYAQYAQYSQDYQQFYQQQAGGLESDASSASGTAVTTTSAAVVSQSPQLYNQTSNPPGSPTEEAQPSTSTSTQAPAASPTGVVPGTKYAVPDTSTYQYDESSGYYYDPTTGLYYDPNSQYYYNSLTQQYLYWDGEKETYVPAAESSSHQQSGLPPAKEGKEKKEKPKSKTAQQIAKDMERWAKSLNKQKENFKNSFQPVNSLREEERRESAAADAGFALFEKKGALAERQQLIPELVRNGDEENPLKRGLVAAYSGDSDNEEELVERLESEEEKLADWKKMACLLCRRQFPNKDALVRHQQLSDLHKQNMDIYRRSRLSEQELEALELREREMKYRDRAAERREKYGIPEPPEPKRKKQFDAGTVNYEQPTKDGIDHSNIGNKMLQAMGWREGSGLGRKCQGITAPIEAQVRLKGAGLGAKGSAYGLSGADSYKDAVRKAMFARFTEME

compound: COc1ccc(Cn2ccc3ccc(C(=O)NO)cc32)cc1; assay: dose-dependent thermal stabilisation call (2D-TPP, DLPTP, 10% FDR) (binary (1 = stabilised)); higher = stabilised by the compound; conditions: system: HL-60 intact cells; concentration range 0.04-10 µM

Target	dose-dependent thermal stabilisation call
PSMB3 (UniProt P49720)	inactive: 0
RANBP9 (UniProt Q96S59)	inactive: 0
RBBP9 (UniProt O75884)	inactive: 0
PUS7 (UniProt Q96PZ0)	inactive: 0
PSMA4 (UniProt P25789)	inactive: 0
PTDSS2 (UniProt Q9BVG9)	inactive: 0
PRPF31 (UniProt Q8WWY3)	inactive: 0
PTPRA (UniProt P18433)	inactive: 0
RBM5 (UniProt P52756)	inactive: 0

Nothing new here: an excerpt of the list.
Target	dose-dependent thermal stabilisation call
RANBP9 (UniProt Q96S59)	inactive: 0
RBBP9 (UniProt O75884)	inactive: 0
